Results are given in words; binding and its absence hold for the method and conditions named. In cells and extracts the contact can be indirect. Binding calls can cover weak binding; strength is not graded here. Sequences can lack the tags named with a protein.
Target: T1, Flag−RFP (pFlag-CMV2-human RFP; Ret finger protein) (human) (UniProt P14373)
T1 sequence: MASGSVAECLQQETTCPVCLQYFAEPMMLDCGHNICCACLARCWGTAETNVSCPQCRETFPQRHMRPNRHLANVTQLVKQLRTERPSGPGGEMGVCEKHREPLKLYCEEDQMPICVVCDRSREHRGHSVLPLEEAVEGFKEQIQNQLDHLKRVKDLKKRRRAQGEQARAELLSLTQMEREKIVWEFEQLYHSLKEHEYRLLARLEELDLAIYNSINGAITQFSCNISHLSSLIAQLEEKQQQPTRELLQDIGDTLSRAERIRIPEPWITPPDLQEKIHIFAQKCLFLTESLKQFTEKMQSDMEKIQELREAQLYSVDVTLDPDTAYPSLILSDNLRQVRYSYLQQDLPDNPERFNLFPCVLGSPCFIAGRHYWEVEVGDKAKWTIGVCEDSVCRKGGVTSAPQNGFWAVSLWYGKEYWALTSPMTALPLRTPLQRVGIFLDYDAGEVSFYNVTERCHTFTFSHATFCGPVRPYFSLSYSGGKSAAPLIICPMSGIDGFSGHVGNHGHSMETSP
Experiment: co-IP; HEK293T cells expressing Flag−RFP and HA−PPAR-γ; lysate incubated with primary antibody (anti-HA or anti-Flag) overnight at 4 °C, protein A/G beads 2 h at 4 °C; immunoblot with anti-Flag or anti-HA

HA−PPAR-γ (pCS4-HA-PPAR-γ)
binding: binds
